Reference: PubChem BioAssay AID493014 (National Center for Advancing Translational Sciences (NCATS), 2011)
The other results are listed elsewhere or left out. These are further read-outs of the screen, such as a control signal, another cell line or another target. No call is given for them. Compounds called inactive in the main read-out are mostly missing here. The note in brackets gives the kind of curve behind each potency; many fits are weak.

Assay: qHTS Assay to Find Inhibitors of Chronic Active B-Cell Receptor Signaling
Conditions: ABC-DLBCL IkBa-CBG/CBR reporter, luminescence ratio (green luciferase fused to IkBa over red control in TMD8 lymphoma cells), 4 h
Outline: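 Compounds up to 46 uM were incubated four hours with TMD8 cells whose green CBG68 luciferase is fused to IkappaBalpha; red CBR luminescence normalised the signal, and concentration-effect curves were fitted to fusion, red and ratio data.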

[1] = measured here: CBR red luminescence, cell number
[2] = measured here: IkBa-CBG green luminescence

Row | Compound | AC50 [1] | AC50 [2]
1 | CN(CC(=O)Nc1ccc(F)cc1)C(=O)Cn1c(=O)oc2ccccc21 | 3.66 µM [falling, full curve] | 
2 | CCN(CC)C(=O)CSc1nc2ccccc2c(=O)n1-c1cccc(OC)c1 | 0.231 µM [rising, full curve, poor fit] | 
3 | Cc1cc(=O)oc2cc(OCC(=O)Nc3cccc(S(=O)(=O)N(C)C)c3)ccc12 | 23.1 µM [rising, single point] | 
4 | Cc1cccc(N2CCN(C(=O)[C@H](C)N3C(=O)C4CC=CCC4C3=O)CC2)c1C (stereo partly specified) | 23.1 µM [rising, single point] | 
5 | O=C1/C(=C/c2ccc(F)c(F)c2)CSc2sccc21 |  | 32.6 µM [rising, partial curve, poor fit]
6 | COc1ccc(-c2cc(=O)c3cc(O)ccc3o2)cc1 | 10 µM [falling, single point] | 
7 | CCOC(=O)c1oc2cccc(O)c2c1C | 11.6 µM [falling, partial curve, poor fit] | 
8 | CC(=O)N1CCN(Cc2nc3cc([N+](=O)[O-])ccc3n2C)CC1 | 35.5 µM [falling, single point] | 
9 | NS(=O)(=O)c1cccnc1Nc1ccc(Cl)c(Cl)c1 | 1.3 µM [rising, partial curve] | 
10 | CCc1nnc(NC(=O)CCN2C(=O)CCC2=O)s1 | 0.1 µM [rising, full curve, poor fit] | 
11 | CCOc1ccccc1C(=O)N/N=C/c1cccc2cccnc12 | 3.55 µM [falling, full curve] | 
12 | OCCC1CN(Cc2cc3c(cc2Cl)OCO3)CCN1C1CCCCC1 (stereo unspecified) | 2.82 µM [falling, partial curve, poor fit] | 
13 | COc1ccc(NC(=O)CN2CCN(c3ccc(F)cc3)CC2)cc1 | 35.5 µM [falling, single point] | 
14 | O=C(CN1C(=O)c2cccnc2Oc2ccc(Cl)cc21)NC1CCCCC1 | 1.58 µM [rising, partial curve, poor fit] | 
15 | CCCCNc1nc2c(-c3ccccc3)nnn2c2ccccc12 | 10 µM [falling, partial curve, poor fit] | 
16 | O=C(c1ccccc1)c1ccc(CN2C(=O)c3ccccc3C2=O)o1 | 14.6 µM [rising, partial curve, poor fit] | 
17 | CC(=O)Nc1ccc(OC(F)(F)Cl)cc1 | 15.8 µM [rising, single point] | 
18 | Cc1ccc(Nc2nc3nonc3[nH]c2=O)cc1Cl | 25.1 µM [falling, single point] | 
19 | Cc1ccc2c(c1)c1c3n2CCN(CC#N)C3CCC1 (stereo unspecified) | 2.24 µM [rising, full curve] | 
20 | N#Cc1c(N)c(C(=O)c2ccccc2)n2c1CCC2 | 32.6 µM [rising, single point] | 
21 | Cc1ccc(-n2ncc3c(NCC(C)C)ncnc32)c(C)c1 | 7.08 µM [falling, partial curve, poor fit] | 
22 | COc1c(Br)cc(Br)cc1/C=N/NC(=O)c1cccnc1 | 8.91 µM [rising, partial curve, poor fit] | 28.2 µM [falling, partial curve, poor fit]

Rewritten with each value named: four of the compounds above.
Cc1cc(=O)oc2cc(OCC(=O)Nc3cccc(S(=O)(=O)N(C)C)c3)ccc12
  AC50 [1]: 23.1 µM [rising, single point]
Cc1cccc(N2CCN(C(=O)[C@H](C)N3C(=O)C4CC=CCC4C3=O)CC2)c1C (stereo partly specified)
  AC50 [1]: 23.1 µM [rising, single point]
O=C1/C(=C/c2ccc(F)c(F)c2)CSc2sccc21
  AC50 [2]: 32.6 µM [rising, partial curve, poor fit]
COc1ccc(-c2cc(=O)c3cc(O)ccc3o2)cc1
  AC50 [1]: 10 µM [falling, single point]

(further entries)

Row | Compound | AC50 [1] | AC50 [2]
23 | CNC(=O)c1c(NC(NC(=O)c2ccco2)C(=O)c2ccc(Cl)cc2)sc2c1CCCC2 (stereo unspecified) | 28.2 µM [falling, single point] | 
24 | O=c1[nH]c(O)c(C=Nc2ccc(Cl)cc2Cl)c(=O)[nH]1 | 0.282 µM [rising, full curve, poor fit] | 
25 | O=C(NCC(=O)N1CCc2ccccc2C1)c1ccccc1Cl | 15.8 µM [falling, partial curve, poor fit] | 
26 | Cc1c(C(=O)NC(=S)NCc2cccnc2)oc2ccccc12 | 5.01 µM [rising, partial curve, poor fit] | 
27 | COc1ccc(C(=O)Nc2ncc(C)s2)cc1S(=O)(=O)N1CCCC1 | 4.47 µM [falling, partial curve, poor fit] | 
28 | O=C(NCc1ccccc1F)C1CCCN1C(=O)Nc1ccc(Cl)cc1 (stereo unspecified) | 3.55 µM [falling, single point] | 
29 | Brc1ccccc1C1=Nn2c(nnc2-c2ccccc2)SC1 | 22.4 µM [falling, single point] | 
30 | C=COC(=O)c1sc2nc(C)cc(C)c2c1N | 2.51 µM [falling, partial curve, poor fit] | 
31 | C/C(=N\Nc1nc2ccccc2[nH]1)c1ccc2c(c1)OCO2 | 12.6 µM [falling, single point] | 
32 | CCN(CC)C(=O)OCc1c(-c2ccccc2)ncc2ccccc12 | 29.1 µM [rising, single point] | 
33 | O=C(Nc1cccc2ncccc12)c1ccc([N+](=O)[O-])o1 | 10 µM [falling, partial curve] | 
34 | Cc1cc(O)ccc1Nc1nc(-c2cccnc2)cs1 |  | 10 µM [falling, partial curve, poor fit]
35 | COc1ccc(N(CC(=O)Nc2nc3ccc(C)cc3s2)S(=O)(=O)c2c(C)nn(C)c2C)cc1 | 1.03 µM [falling, full curve] | 
36 | CC1=NNC(=O)C1CCC(=O)N/N=C/c1ccc(Cl)cc1 (stereo unspecified) | 11.2 µM [falling, partial curve] | 
37 | CCCCN1C(=O)C(=O)c2cc(Cl)ccc21 |  | 16.4 µM [falling, single point]
38 | O=C(CSc1nnc(-c2cccs2)n1-c1ccccc1)N1CCN(C(=O)c2ccco2)CC1 | 25.1 µM [falling, single point] | 
39 | COc1ccc(OC)c(/C=C/C(=O)N(C)CC(=O)Nc2ccc(N3CCOCC3)cc2)c1 | 16.4 µM [rising, partial curve, poor fit] | 
40 | Cc1c(O)ccc(/C(Cc2ccc3ccccc3n2)=N\O)c1O | 15.8 µM [falling, partial curve, poor fit] | 
41 | CCC(C)[C@H](NC(=O)Nc1ccc2c(c1)OCCO2)C(=O)OC (stereo partly specified) | 15.8 µM [rising, single point] | 
42 | COc1ccc([C@@H]2CC(=O)c3c(O)cc(O[C@@H]4O[C@H](CO[C@@H]5O[C@@H](C)[C@H](O)[C@@H](O)[C@H]5O)[C@@H](O)[C@H](O)[C@H]4O)cc3O2)cc1O | 8.91 µM [rising, partial curve, poor fit] | 
43 | COc1cc(C)c(Br)cc1S(=O)(=O)N1CCOCC1 | 16.4 µM [rising, single point] | 
44 | O=C(NC1CCCCCCC1)NC1CCCCC1 | 35.5 µM [falling, single point] | 

Row | Compound | AC50 [1] | AC50 [2]
45 | BrC(=C\c1ccccc1)/C=N/N1CCN(c2ccccn2)CC1 | 0.731 µM [rising, full curve, poor fit] | 
46 | O=C(C(=O)N1CCc2ccccc2C1)c1c[nH]c2ccccc12 | 0.708 µM [rising, partial curve, poor fit] | 
47 | CC(=O)N(CCC(Cc1ccccc1)c1ccco1)Cc1ccco1 (stereo unspecified) | 3.55 µM [falling, partial curve, poor fit] | 
48 | Clc1cccc(N2CCN(Cc3nnc(-c4ccccc4)o3)CC2)c1 | 6.31 µM [falling, partial curve, poor fit] | 
49 | Cc1ccccc1NC(=O)c1ccc(NC(=O)C2CC(=O)OC23CCCCC3)cc1 (stereo unspecified) | 20 µM [falling, single point] | 
50 | COc1ccc(C(=O)NCCNc2nc3c(C)cccc3cc2C#N)cc1OC | 1.12 µM [rising, full curve] | 
51 | CCOC(=O)c1cnc2ccc(C)cc2c1Nc1ccc(N2CCOCC2)cc1 | 18.4 µM [falling, partial curve, poor fit] | 
52 | O=C(OCC(=O)N1CCOCC1)c1ccc2ccccc2c1O | 6.51 µM [falling, partial curve] | 
53 | CCOC(=O)C1CCN(C(=O)c2cc3c(=O)n4cccc(C)c4nc3s2)CC1 | 3.16 µM [falling, partial curve] | 
54 | COc1ccc(NC(=O)CN(C)C(C)C(=O)N2CCCCC2)cc1 (stereo unspecified) | 0.146 µM [rising, full curve, poor fit] | 
55 | CCCOc1cccc(-c2nnc(NC(=O)c3ccco3)s2)c1 | 6.31 µM [falling, partial curve, poor fit] | 
56 | O=C1/C(=C/c2ccco2)SC(=S)N1C1CCS(=O)(=O)C1 (stereo unspecified) | 35.5 µM [falling, single point] | 
57 | Cc1cccc(-c2nn(-c3ccccc3)cc2C(=O)NCC(c2cccs2)N2CCOCC2)c1 (stereo unspecified) | 0.103 µM [rising, full curve, poor fit] | 
58 | CCOC(=O)[C@H]1[C@H]2COc3ccc(Cl)cc3[C@@H]2N2C(=O)c3cc(OC)ccc3NC(=O)[C@@]12C | 20.6 µM [falling, partial curve] | 16.4 µM [rising, partial curve, poor fit]
59 | CCn1c(C)cc(C=C2C(=O)c3ccccc3C2=O)c1C | 35.5 µM [falling, single point] | 
60 | O=C(CCCC(=O)OCC(Cl)=C(Cl)Cl)Nc1cccc(F)c1 | 11.2 µM [falling, single point] | 
61 | Cn1c(=O)c(C(=O)NNC(=O)c2cccc(Cl)c2)c(O)c2ccccc21 | 1.58 µM [falling, full curve] | 
62 | O=C(NCc1ccccc1C(F)(F)F)C1CC(c2ccccc2[N+](=O)[O-])=NO1 (stereo unspecified) | 2.82 µM [falling, single point] | 
63 | O/N=C/c1ccc(OCc2ccccc2)c(Cl)c1 | 2.06 µM [rising, full curve] | 
64 | C[C@]12CC[C@@H]3c4ccc(O)cc4CC[C@H]3[C@@H]1CC[C@@H]2OC(=O)CCC(=O)O | 0.92 µM [rising, partial curve] | 
